Results are given in words; binding and its absence hold for the method and conditions named. Binding seen in cells or lysates may run through a third protein. Here binding means that the protein was enriched with, or labelled near, the bait; the list need not be complete.
Target: HA-tagged WT Hop (human) (UniProt P31948)
Assay: affinity purification with mass spectrometry; HA-IP of HA-tagged WT Hop or TPR double mutant exogenously overexpressed in HEK293T Hop KO1 cells; label-free LC/MS-MS, iBAQ normalised on the abundance of Hop; compared with control IP and with the TPR double mutant

Sequences of proteins named here, by UniProt entry; tags and fusion partners are left off.
UniProt P51665: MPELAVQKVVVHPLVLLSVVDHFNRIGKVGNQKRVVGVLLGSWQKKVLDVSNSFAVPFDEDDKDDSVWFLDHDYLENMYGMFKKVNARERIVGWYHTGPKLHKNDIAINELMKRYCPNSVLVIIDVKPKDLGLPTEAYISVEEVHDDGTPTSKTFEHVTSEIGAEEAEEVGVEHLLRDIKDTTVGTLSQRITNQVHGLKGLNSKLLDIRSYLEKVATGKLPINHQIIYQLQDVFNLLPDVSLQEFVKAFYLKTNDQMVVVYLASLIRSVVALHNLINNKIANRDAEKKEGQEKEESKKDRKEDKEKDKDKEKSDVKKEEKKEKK
UniProt Q58FF6: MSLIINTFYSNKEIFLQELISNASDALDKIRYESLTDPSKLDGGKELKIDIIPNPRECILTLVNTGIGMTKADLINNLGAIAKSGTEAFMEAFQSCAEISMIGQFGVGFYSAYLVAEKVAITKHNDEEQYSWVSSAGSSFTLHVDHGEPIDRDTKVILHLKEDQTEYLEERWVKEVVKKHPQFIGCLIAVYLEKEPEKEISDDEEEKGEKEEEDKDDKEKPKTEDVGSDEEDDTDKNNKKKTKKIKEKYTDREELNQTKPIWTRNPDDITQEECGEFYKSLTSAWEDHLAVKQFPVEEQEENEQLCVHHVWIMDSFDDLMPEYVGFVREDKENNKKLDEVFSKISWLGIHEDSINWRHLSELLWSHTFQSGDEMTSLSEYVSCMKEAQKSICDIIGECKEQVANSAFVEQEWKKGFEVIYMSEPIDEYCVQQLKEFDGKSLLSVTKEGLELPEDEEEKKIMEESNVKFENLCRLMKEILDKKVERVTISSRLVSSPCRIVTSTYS
UniProt P48741: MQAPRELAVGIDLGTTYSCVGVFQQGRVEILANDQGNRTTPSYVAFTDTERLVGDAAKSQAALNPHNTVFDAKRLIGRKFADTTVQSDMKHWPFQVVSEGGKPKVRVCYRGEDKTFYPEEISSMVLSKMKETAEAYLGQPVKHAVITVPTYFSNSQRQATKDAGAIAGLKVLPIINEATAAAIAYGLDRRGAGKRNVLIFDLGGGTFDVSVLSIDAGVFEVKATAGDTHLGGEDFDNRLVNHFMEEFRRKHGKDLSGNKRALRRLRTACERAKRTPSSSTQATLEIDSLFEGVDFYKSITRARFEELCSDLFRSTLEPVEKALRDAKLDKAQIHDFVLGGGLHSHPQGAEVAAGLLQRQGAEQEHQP

Row | binding | Substance
1 | binds | PSMD7 (from UniProt P51665 1-324)
2 | binds | HSP90AB4P (from UniProt Q58FF6 1-505)
3 | binds | HSP7 (from UniProt P48741 1-367)
4 | binds | PSMD14 (from UniProt O00487 1-310)

Source: publication PMC7688965
